In article PMC9958362:
These are yes or no findings as the source states them, for the method shown. Binding seen in cells or lysates may run through a third protein. Some results given as binding are weak or reduced against the parent protein; the word gives no strength.

The chains behind the UniProt entries cited, without tags or fusion partners.
UniProt Q92878: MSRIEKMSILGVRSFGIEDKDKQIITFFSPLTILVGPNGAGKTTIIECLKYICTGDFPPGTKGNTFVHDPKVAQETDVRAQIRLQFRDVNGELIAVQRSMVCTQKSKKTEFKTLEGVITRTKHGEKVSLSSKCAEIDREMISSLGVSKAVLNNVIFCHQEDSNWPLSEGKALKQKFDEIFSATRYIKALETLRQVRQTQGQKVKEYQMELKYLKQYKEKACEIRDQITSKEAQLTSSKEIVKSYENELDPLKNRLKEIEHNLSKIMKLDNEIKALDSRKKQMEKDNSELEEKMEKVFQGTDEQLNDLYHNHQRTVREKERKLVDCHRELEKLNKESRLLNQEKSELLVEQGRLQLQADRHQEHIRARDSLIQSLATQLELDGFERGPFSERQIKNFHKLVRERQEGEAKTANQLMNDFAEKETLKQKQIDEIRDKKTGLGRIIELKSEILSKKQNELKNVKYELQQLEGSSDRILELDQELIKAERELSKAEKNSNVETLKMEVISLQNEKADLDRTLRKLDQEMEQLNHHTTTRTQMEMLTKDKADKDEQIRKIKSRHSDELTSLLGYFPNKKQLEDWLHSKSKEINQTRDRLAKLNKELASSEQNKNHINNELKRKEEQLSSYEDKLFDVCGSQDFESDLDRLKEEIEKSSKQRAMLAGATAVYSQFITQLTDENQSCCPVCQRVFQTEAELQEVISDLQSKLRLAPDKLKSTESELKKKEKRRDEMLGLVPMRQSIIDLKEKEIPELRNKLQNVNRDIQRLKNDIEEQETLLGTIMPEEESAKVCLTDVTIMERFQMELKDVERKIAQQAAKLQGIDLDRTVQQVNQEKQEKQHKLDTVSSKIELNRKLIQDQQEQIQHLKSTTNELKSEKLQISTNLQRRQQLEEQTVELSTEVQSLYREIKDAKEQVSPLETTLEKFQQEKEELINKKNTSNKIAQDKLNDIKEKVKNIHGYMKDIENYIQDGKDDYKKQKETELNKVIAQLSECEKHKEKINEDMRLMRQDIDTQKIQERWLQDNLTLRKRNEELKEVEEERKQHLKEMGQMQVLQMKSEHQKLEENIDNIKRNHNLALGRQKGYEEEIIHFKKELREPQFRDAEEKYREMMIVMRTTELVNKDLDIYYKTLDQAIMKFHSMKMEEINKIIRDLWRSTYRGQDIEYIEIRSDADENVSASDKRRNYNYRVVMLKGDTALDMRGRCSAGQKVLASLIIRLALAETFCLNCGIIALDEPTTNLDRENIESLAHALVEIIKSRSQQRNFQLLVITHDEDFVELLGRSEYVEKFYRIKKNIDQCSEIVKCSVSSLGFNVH
UniProt P38398: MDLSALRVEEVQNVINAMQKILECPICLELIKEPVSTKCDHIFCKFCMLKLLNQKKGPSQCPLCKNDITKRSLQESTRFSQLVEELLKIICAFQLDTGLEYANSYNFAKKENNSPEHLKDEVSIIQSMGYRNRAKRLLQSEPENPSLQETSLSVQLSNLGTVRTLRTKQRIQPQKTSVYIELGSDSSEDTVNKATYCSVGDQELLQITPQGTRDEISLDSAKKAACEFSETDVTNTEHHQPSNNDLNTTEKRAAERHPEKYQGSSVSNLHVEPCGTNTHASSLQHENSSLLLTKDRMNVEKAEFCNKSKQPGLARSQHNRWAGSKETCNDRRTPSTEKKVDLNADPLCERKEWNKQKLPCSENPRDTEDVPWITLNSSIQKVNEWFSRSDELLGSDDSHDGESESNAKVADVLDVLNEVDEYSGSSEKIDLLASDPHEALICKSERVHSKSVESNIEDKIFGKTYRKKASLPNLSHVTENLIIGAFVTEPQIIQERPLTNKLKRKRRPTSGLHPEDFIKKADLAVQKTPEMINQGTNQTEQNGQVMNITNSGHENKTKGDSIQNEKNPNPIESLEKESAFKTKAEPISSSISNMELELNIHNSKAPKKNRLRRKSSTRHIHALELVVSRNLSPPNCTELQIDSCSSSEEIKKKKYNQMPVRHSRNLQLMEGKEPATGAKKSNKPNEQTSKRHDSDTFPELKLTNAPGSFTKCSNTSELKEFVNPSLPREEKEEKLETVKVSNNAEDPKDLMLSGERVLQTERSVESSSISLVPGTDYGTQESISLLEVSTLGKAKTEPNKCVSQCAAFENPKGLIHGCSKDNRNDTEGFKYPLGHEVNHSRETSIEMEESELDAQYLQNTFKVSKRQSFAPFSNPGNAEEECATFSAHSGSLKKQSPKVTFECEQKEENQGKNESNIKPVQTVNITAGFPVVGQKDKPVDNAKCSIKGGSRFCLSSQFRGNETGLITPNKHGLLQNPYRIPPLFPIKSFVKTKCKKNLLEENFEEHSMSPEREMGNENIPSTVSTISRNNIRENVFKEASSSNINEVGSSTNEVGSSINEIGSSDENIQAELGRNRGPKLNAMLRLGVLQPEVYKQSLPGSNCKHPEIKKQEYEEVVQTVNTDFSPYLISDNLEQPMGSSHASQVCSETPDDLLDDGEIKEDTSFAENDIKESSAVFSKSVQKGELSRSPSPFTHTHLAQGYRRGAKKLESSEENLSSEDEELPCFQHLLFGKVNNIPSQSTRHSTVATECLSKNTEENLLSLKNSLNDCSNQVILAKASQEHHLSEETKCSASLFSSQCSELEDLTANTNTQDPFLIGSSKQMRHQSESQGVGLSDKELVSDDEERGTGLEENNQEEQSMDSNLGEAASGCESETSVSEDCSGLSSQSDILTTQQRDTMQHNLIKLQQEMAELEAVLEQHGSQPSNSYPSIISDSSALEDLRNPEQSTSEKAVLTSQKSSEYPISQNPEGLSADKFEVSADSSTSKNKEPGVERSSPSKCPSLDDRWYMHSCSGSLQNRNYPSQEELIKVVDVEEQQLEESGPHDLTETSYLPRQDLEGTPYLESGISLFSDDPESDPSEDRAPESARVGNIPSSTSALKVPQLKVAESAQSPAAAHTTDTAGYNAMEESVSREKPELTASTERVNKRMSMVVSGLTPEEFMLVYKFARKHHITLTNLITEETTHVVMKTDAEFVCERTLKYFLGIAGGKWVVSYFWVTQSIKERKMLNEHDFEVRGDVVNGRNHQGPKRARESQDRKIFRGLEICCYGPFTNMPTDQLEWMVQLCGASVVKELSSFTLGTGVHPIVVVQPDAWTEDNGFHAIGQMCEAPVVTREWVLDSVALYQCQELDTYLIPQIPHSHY
UniProt Q12888: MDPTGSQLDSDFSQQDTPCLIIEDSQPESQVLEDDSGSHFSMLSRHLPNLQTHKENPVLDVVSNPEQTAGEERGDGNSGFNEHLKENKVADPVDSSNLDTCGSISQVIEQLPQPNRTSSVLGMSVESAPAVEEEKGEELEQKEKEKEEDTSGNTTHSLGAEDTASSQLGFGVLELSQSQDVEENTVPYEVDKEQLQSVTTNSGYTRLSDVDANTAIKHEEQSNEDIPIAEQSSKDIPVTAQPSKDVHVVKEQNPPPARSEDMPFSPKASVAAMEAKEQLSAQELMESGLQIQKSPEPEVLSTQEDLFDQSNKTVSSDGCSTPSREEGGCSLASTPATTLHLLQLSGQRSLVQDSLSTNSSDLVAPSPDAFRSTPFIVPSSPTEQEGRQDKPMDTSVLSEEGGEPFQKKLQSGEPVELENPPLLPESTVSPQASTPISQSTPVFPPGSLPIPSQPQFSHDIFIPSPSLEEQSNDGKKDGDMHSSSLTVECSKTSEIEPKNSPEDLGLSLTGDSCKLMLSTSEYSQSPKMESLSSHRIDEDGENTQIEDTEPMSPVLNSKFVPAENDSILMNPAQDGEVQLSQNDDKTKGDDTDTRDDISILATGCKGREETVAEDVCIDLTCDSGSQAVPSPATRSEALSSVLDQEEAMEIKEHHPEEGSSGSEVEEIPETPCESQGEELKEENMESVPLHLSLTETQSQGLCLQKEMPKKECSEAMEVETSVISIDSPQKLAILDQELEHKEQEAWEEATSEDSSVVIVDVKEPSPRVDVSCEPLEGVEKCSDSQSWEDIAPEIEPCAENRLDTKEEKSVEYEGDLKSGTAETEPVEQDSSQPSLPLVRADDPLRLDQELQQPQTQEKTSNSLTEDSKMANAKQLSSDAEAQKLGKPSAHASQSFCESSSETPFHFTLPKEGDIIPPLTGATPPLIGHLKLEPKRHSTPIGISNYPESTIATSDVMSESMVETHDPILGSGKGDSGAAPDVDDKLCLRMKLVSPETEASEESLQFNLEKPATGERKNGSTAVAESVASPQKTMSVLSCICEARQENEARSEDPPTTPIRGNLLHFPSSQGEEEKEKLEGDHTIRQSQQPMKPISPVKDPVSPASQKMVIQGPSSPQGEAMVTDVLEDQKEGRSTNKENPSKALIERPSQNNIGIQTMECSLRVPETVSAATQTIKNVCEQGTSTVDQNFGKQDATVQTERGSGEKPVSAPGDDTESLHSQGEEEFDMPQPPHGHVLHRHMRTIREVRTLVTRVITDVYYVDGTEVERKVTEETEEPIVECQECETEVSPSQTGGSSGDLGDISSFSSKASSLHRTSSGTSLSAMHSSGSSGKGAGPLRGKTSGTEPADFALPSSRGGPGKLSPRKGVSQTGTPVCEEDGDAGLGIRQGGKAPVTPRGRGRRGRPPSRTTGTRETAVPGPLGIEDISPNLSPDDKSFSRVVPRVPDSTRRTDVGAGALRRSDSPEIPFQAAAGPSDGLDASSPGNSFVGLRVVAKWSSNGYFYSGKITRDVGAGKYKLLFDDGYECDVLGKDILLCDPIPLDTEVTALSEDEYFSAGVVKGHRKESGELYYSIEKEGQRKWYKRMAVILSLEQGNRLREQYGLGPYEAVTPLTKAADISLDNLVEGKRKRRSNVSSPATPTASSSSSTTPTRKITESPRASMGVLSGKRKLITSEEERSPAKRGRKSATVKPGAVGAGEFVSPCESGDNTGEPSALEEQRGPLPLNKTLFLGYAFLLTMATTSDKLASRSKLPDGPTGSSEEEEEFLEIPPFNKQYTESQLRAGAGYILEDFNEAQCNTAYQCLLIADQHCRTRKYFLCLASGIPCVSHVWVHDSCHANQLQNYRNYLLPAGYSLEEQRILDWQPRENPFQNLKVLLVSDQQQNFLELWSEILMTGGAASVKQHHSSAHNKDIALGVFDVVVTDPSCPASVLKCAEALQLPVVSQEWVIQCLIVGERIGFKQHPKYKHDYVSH
UniProt Q14244: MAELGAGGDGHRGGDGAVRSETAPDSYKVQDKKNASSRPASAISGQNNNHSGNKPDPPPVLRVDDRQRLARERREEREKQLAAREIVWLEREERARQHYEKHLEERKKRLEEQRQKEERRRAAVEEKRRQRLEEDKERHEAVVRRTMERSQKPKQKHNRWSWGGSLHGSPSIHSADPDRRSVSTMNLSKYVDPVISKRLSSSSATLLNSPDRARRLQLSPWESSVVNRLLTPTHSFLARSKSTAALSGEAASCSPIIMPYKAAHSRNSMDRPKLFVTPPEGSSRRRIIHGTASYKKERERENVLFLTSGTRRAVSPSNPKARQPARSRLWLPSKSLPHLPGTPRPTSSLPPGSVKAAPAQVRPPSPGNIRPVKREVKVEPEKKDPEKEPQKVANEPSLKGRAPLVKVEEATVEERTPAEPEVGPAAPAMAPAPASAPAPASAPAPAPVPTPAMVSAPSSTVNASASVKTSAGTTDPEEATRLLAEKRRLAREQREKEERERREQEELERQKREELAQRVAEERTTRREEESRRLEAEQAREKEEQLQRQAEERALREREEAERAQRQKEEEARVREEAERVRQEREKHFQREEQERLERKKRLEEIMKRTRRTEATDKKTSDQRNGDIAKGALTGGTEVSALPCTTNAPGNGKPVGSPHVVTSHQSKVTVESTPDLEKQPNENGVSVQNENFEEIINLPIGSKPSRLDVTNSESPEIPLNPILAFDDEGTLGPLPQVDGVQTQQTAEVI

What was measured:
Assay in all cases: co-IP; endogenous proteins from HEK293T whole cell extract (2.5 mg, 2 h, 4 °C; 50 mM Tris-HCl pH 7.5, 150 mM NaCl, 1% Triton X-100); Protein G agarose with primary antibody; western blot
[1] = biological target: RAD50 (endogenous, HEK293T) (human (endogenous in HEK293T)) (UniProt Q92878)
[2] = biological target: BRCA1 (endogenous, HEK293T) (human (endogenous in HEK293T)) (UniProt P38398)
[3] = biological target: 53BP1 (endogenous, HEK293T) (human (endogenous in HEK293T)) (UniProt Q12888)

binding [1]: binds
binding [2]: binds
binding [3]: binds
Substance: MAP7 (endogenous, HEK293T) (from UniProt Q14244 1-749)
